Some entries share one result that the patent states for a list of compounds.
Legend:
Format in all cases: in vivo
[1] = system: Diamond Back Moth (Plutella xylostella); assay: Diamond back moth leaf-dip test on Chinese cabbage; conditions: 300 ppm; recorded 24, 72 and 120 hours after treatment
Method: If not otherwise specified the test solutions were prepared as follow:
The active compound was dissolved at the desired concentration in a mixture of 1:1 (vol:vol) distilled water:acteon. The test solution was prepared the day it was used and in general at concentrations of […] (wt/vol).
Leaves of Chinese cabbage were dipped in test solution and air-dried. Treated leaves were placed in petri dished lined with moist filter paper. Mortality was recorded 24, 72, and 120 hours after treatment.

[2] = system: Boll Weevil (Anthonomus grandis); assay: Boll weevil microtiter plate diet test; conditions: 2500 ppm; egg and larval mortality after 5 days
Method: For evaluating control of boll weevil (Anthonomus grandis) the test unit consisted of 24-well-microtiter plates containing an insect diet and 20-30 A. grandis eggs. The compounds were formulated using a solution containing 75% v/v water and 25% v/v DMSO. Different concentrations of formulated compounds were sprayed onto the insect diet at 20 μl, using a custom built micro atomizer, at two replications. After application, microtiter plates were incubated at about 23±1° C. and about 50±5% relative humidity for 5 days. Egg and larval mortality was then visually assessed.

[3] = system: Silverleaf Whitefly (Bemisia argentifolii); assay: Silverleaf whitefly spray test on cotton plants; conditions: 300 ppm; adults; 3 days after treatment
Excerpt: (§1) The active compounds were formulated in cyclohexanone as a 10,000 ppm solution supplied in tubes. The tubes were inserted into an automated electrostatic sprayer equipped with an atomizing nozzle and served as stock solutions for which lower dilutions were made in 50% acetone:50% water (v/v). A nonionic surfactant (Kinetic®) was included in the solution at a volume of 0.01% (v/v).
Cotton plants at the cotyledon stage (one plant per pot) were sprayed by an automated electrostatic plant sprayer equipped with an atomizing spray nozzle. The plants were dried in the sprayer fume hood and then removed from the sprayer. Each pot was placed into a plastic cup and about 10 to 12 whitefly adults (approximately 3-5 days old) were introduced. The insects were collected using an aspirator and a nontoxic Tygon® tubing connected to a barrier pipette tip. The tip, containing the collected insects, was then gently inserted into the soil containing the treated plant, allowing insects to crawl out of the tip to reach the foliage for feeding. Cups were covered with a reusable screened lid. Test plants were maintained in a growth room at about 25° C. and about 20-40% relative humidity for 3 days, avoiding direct exposure to fluorescent light (24 hour photoperiod) to prevent trapping of heat inside the cup. Mortality was assessed 3 days after treatment, compared to untreated control plants.

[4] = system: Southern Armyworm (Spodoptera eridania); assay: Southern armyworm spray test on lima bean plants; conditions: 300 ppm; larvae; 4 days after treatment
Method: as §1, with “dilutions are” for “dilutions were”
Lima bean plants (variety Sieva) were grown 2 plants to a pot and selected for treatment at the 1st true leaf stage. Test solutions were sprayed onto the foliage by an automated electrostatic plant sprayer equipped with an atomizing spray nozzle. The plants were dried in the sprayer fume hood and then removed from the sprayer. Each pot was placed into perforated plastic bags with a zip closure. About 10 to 11 armyworm larvae were placed into the bag and the bags zipped closed. Test plants were maintained in a growth room at about 25° C. and about 20-40% relative humidity for 4 days, avoiding direct exposure to fluorescent light (24 hour photoperiod) to prevent trapping of heat inside the bags. Mortality and reduced feeding were assessed 4 days after treatment, compared to untreated control plants.

[5] = system: Mediterranean Fruitfly (Ceratitis capitata); assay: Mediterranean fruitfly microtiter plate diet test; conditions: 2500 ppm; egg and larval mortality after 5 days
Method: For evaluating control of Mediterranean fruitfly (Ceratitis capitata) the test unit consisted of microtiter plates containing an insect diet and 50-80 C. capitata eggs.
(§2) The compounds were formulated using a solution containing 75% v/v water and 25% v/v DMSO. Different concentrations of formulated compounds were sprayed onto the insect diet at 5 μl, using a custom built micro atomizer, at two replications. After application, microtiter plates were incubated at about 28±1° C. and about 80±5% relative humidity for 5 days. Egg and larval mortality was then visually assessed.

[6] = system: Cotton Aphid (Aphis gossypii); assay: Cotton aphid spray test on infested cotton plants; conditions: 300 ppm; determined after 5 days
[7] = system: Tobacco Budworm (Heliothis virescens); assay: Tobacco budworm microtiter plate diet test; conditions: 2500 ppm; egg and larval mortality after 5 days
Method: as §2, with “For evaluating control of tobacco budworm (Heliothis virescens) the test unit consisted of 96-well-microtiter plates containing an insect diet and 15-25 H. virescens eggs. The” for “The”, “at 10” for “at 5”, “plates are” for “plates were”, “mortality is” for “mortality was”

[8] = system: Rice Brown Plant Hopper (Nilaparvata lugens); assay: Rice brown plant hopper spray test on rice seedlings; conditions: 500 ppm; adults; after 72 hours
[9] = system: Rice Green Leafhopper (Nephotettix virescens); assay: Rice green leafhopper spray test on rice seedlings; conditions: 500 ppm; adults; after 72 hours
[10] = system: Red Spider Mite (Tetranychus kanzawai); assay: Red spider mite spray test on cowpea beans; conditions: 500 ppm; after 72 h
[11] = system: Orchid Thrips (Dichromothrips corbetti); assay: Orchid thrips floral-immersion test; conditions: 300 ppm; adult thrips; after 4 days
Method: Dichromothrips corbetti adults used for bioassay were obtained from a colony maintained continuously under laboratory conditions. For testing purposes, the test compound was diluted to a concentration of 300 ppm (wt compound: vol diluent) in a 1:1 mixture of acetone:water (vol:vol), plus 0.01% vol/vol Kinetic® surfactant.
Thrips potency of each compound was evaluated by using a floral-immersion technique. Plastic petri dishes were used as test arenas. All petals of individual, intact orchid flowers were dipped into treatment solution and allowed to dry. Treated flowers were placed into individual petri dishes along with 10-15 adult thrips. The petri dishes were then covered with lids. All test arenas were held under continuous light and a temperature of about 28° C. for duration of the assay. After 4 days, the numbers of live thrips was counted on each flower, and along inner walls of each petri dish. The level of thrips mortality was extrapolated from pre-treatment thrips numbers.

[12] = system: Vetch Aphid (Megoura viciae); assay: Vetch aphid leaf disk microtiter plate test; conditions: 2500 ppm; adult aphids; after 5 days
Method: For evaluating control of vetch aphid (Megoura viciae) through contact or systemic means the test unit consisted of 24-well-microtiter plates containing broad bean leaf disks. The compounds were formulated using a solution containing 75% v/v water and 25% v/v DMSO. Different concentrations of formulated compounds were sprayed onto the leaf disks at 2.5 μl, using a custom built micro atomizer, at two replications. After application, the leaf disks were air-dried and 5-8 adult aphids were placed on the leaf disks inside the microtiter plate wells. The aphids were then allowed to suck on the treated leaf disks and incubated at about 23±1° C. and about 50±5% relative humidity for 5 days. Aphid mortality and fecundity was then visually assessed.

[13] = system: yellowfever mosquito larvae (Aedes aegypti); assay: Larval mosquito water treatment assay; conditions: 1 ppm; early 4th-instar larvae in water; 5 DAT

Measured: mortality in comparison with untreated controls

COC(=NOC(C)C)c1ccc(C2=NOC(c3cc(Cl)cc(Cl)c3)(C(F)(F)F)C2)cc1C (stereo not shown) [Compound 1-41]
at least 75%: [1] | [2] | [3] | [4] | [5]

Cc1cc(C2=NOC(c3cc(Cl)cc(Cl)c3)(C(F)(F)F)C2)ccc1C=NNC(=N)N (stereo not shown) [Compound 1-44]
at least 75%: [6] | [7] | [5]

CCC(=O)ON=Cc1ccc(C2=NOC(c3cc(Cl)cc(Cl)c3)(C(F)(F)F)C2)cc1C (stereo not shown) [Compound 1-4, 4-[5-(3,5-Dichloro-phenyl)-5-trifluoromethyl-4,5-dihydro-isoxazol-3-yl]-2-methyl-benzaldehyde oxime-O-propionate]
at least 75%: [1] | [8] | [2] | [4] | [9] | [7]

COC(=NOCc1ccccc1)c1ccc(C2=NOC(c3cc(Cl)cc(Cl)c3)(C(F)(F)F)C2)cc1C (stereo not shown) [Compound 1-37]
at least 75%: [4] | [10]

Cc1cc(C2=NOC(c3cc(Cl)cc(Cl)c3)(C(F)(F)F)C2)ccc1/C=N/OCC(=O)N1CCOCC1 (stereo not shown) [Compound 1-16]
at least 75%: [1] | [2] | [6] | [4] | [7] | [5]

CCON=C(OC)c1ccc(C2=NOC(c3cc(Cl)cc(Cl)c3)(C(F)(F)F)C2)cc1C (stereo not shown) [Compound 1-35]
at least 75%: [8] | [11] | [5]

Cc1cc(C2=NOC(c3cc(Cl)cc(Cl)c3)(C(F)(F)F)C2)ccc1/C=N/OCC(=O)NC(C)C (stereo not shown) [Compound 1-8]
at least 75%: [1] | [12] | [2] | [4] | [7] | [10]

Cc1cc(C2=NOC(c3cc(Cl)cc(Cl)c3)(C(F)(F)F)C2)ccc1/C=N/OCC#N (stereo not shown) [Compound 1-5]
at least 75%: [1] | [12] | [4] | [7] | [5]

CNC(=O)CO/N=C/c1ccc(C2=NOC(c3cc(Cl)cc(Cl)c3)(C(F)(F)F)C2)cc1C (stereo not shown) [Compound 1-14]
not listed: [6] | [8] | [9] | [11] | [12]
at least 75%: all other assays above

Cc1cc(C2=NOC(c3cc(Cl)cc(Cl)c3)(C(F)(F)F)C2)ccc1C=NNC(=O)NCC(F)(F)F (stereo not shown) [Compound 1-48]
not listed: [6] | [8]
at least 75%: all other assays above

CC(=O)ON=Cc1ccc(C2=NOC(c3cc(Cl)cc(Cl)c3)(C(F)(F)F)C2)cc1C (stereo not shown) [Compound 1-3, 4-[5-(3,5-Dichloro-phenyl)-5-trifluoromethyl-4,5-dihydro-isoxazol-3-yl]-2-methyl-benzaldehyde oxime-O-acetate]
at least 75%: [12] | [2] | [4] | [7] | [5]

Cc1cc(C2=NOC(c3cc(Cl)cc(Cl)c3)(C(F)(F)F)C2)ccc1C(C#N)=NO (stereo not shown) [Compound 1-29]
at least 75%: [1] | [12] | [2] | [4] | [7] | [11] | [5]
